Experimental data reported in PMC12561996.
Results are given in words; binding and its absence hold for the method and conditions named. Binding seen in cells or lysates may run through a third protein. Some results given as binding are weak or reduced against the parent protein; the word gives no strength.

Protein sequences, listed by entry. Tags and fused reporters are not part of them.
UniProt Q9Y297: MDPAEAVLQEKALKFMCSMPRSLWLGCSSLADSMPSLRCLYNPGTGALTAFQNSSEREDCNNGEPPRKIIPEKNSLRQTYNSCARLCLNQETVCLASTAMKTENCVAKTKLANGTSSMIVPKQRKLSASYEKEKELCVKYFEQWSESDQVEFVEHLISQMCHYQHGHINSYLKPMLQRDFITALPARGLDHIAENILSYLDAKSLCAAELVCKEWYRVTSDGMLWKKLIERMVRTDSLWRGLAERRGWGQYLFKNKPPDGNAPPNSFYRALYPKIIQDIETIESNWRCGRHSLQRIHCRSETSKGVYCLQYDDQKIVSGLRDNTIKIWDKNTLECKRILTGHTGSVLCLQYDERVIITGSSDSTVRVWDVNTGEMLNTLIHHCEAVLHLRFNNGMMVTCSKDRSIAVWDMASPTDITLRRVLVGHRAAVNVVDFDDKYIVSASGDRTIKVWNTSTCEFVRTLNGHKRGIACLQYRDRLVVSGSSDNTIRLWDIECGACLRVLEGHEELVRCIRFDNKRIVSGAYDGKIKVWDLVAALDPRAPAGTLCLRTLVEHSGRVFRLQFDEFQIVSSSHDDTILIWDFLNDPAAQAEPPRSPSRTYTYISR

Target: S-phase kinase-associated protein 1 (Skp1) (UniProt P63208)
Experiment: co-IP; HEK293T cells co-transfected with the tagged proteins, with or without RPS4X; 24 h after transfection 40 uM MG132 for 16 h; lysates immunoprecipitated with a specific antibody, then immunoblot; which partner was precipitated is not given

binding: binds
Substance: human β-TrCP (from UniProt Q9Y297 1-605)
